Drawing on publication doi:10.1101/2021.10.01.462752, this text covers binding for 1 molecule.

This assay concerns the target FLAG-tagged JADE1S (not stated (previously described JADE1S cDNA; murine Jade1S cDNA was also cloned)). Put plainly: co-IP.

These are yes or no findings as the source states them, for the method shown. Binding seen in cells or lysates may run through a third protein. Binding can be weak; no strength is given. Sequences can lack the tags named with a protein.

B1: V5-tagged NPHP4 (protein, UniProt O75161 1-1426)
chain: MNDWHRIFTQNVLVPPHPQRARQPWKESTAFQCVLKWLDGPVIRQGVLEVLSEVECHLRVSFFDVTYRHFFGRTWKTTVKPTKRPPSRIVFNEPLYFHTSLNHPHIVAVVEVVAEGKKRDGSLQTLSCGFGILRIFSNQPDSPISASQDKRLRLYHGTPRALLHPLLQDPAEQNRHMTLIENCSLQYTLKPHPALEPAFHLLPENLLVSGLQQIPGLLPAHGESGDALRKPRLQKPITGHLDDLFFTLYPSLEKFEEELLELHVQDHFQEGCGPLDGGALEILERRLRVGVHNGLGFVQRPQVVVLVPEMDVALTRSASFSRKVVSSSKTSSGSQALVLRSRLRLPEMVGHPAFAVIFQLEYVFSSPAGVDGNAASVTSLSNLACMHMVRWAVWNPLLEADSGRVTLPLQGGIQPNPSHCLVYKVPSASMSSEEVKQVESGTLRFQFSLGSEEHLDAPTEPVSGPKVERRPSRKPPTSPSSPPAPVPRVLAAPQNSPVGPGLSISQLAASPRSPTQHCLARPTSQLPHGSQASPAQAQEFPLEAGISHLEADLSQTSLVLETSIAEQLQELPFTPLHAPIVVGTQTRSSAGQPSRASMVLLQSSGFPEILDANKQPAEAVSATEPVTFNPQKEESDCLQSNEMVLQFLAFSRVAQDCRGTSWPKTVYFTFQFYRFPPATTPRLQLVQLDEAGQPSSGALTHILVPVSRDGTFDAGSPGFQLRYMVGPGFLKPGERRCFARYLAVQTLQIDVWDGDSLLLIGSAAVQMKHLLRQGRPAVQASHELEVVATEYEQDNMVVSGDMLGFGRVKPIGVHSVVKGRLHLTLANVGHPCEQKVRGCSTLPPSRSRVISNDGASRFSGGSLLTTGSSRRKHVVQAQKLADVDSELAAMLLTHARQGKGPQDVSRESDATRRRKLERMRSVRLQEAGGDLGRRGTSVLAQQSVRTQHLRDLQVIAAYRERTKAESIASLLSLAITTEHTLHATLGVAEFFEFVLKNPHNTQHTVTVEIDNPELSVIVDSQEWRDFKGAAGLHTPVEEDMFHLRGSLAPQLYLRPHETAHVPFKFQSFSAGQLAMVQASPGLSNEKGMDAVSPWKSSAVPTKHAKVLFRASGGKPIAVLCLTVELQPHVVDQVFRFYHPELSFLKKAIRLPPWHTFPGAPVGMLGEDPPVHVRCSDPNVICETQNVGPGEPRDIFLKVASGPSPEIKDFFVIIYSDRWLATPTQTWQVYLHSLQRVDVSCVAGQLTRLSLVLRGTQTVRKVRAFTSHPQELKTDPKGVFVLPPRGVQDLHVGVRPLRAGSRFVHLNLVDVDCHQLVASWLVCLCCRQPLISKAFEIMLAAGEGKGVNKRITYTNPYPSRRTFHLHSDHPELLRFREDSFQVGGGETYTIGLQFAPSQRVGEEEILIYINDHEDKNEEAFCVKVIYQ
On to B1, for which the binding result was “binds”.
